The values that follow come from paper PMC11022410 (Beilstein Journal of Organic Chemistry, 2024).

Strings that start with PEPTIDE1 are HELM notation: dots part the residues, brackets hold end groups and non-standard residues.

The nature of this series: general procedure: Fmoc solid-phase peptide synthesis; 2-chlorotrityl resin; HCTU/NMM (chain assembly); HBTU/DIPEA (C60 conjugation).
Setting [1] is: whole synthesis, total peptide synthesis, scale of the general procedure 500 mg resin.

For the substance “PEPTIDE1{[C60pyrGlt].[GABA].E.E.E.E.E}|PEPTIDE2{[GABA].E.E.E.E.E}$PEPTIDE1,PEPTIDE2,1:R3-1:R1$$$V2.0”, where the note is “conjugation step”, the difficulty met result is listed as “could not be isolated by HPLC, especially in the presence of an oligo-Glu impurity”. Under “whole synthesis”, this substance gave an isolated mass of 12.6 mg. This substance showed an isolated yield under setting [1] of 36%.
With “PEPTIDE1{[C60pyrGlt].[GABA].K.K.K.K.K}|PEPTIDE2{[GABA].K.K.K.K.K}$PEPTIDE1,PEPTIDE2,1:R3-1:R1$$$V2.0”, for the setting “whole synthesis”, the isolated mass was 11.2 mg. Also, the isolated yield under setting [1] is listed as 32%.
With “PEPTIDE1{[C60pyrGlt].[GABA].R.R.R.R.R}|PEPTIDE2{[GABA].R.R.R.R.R}$PEPTIDE1,PEPTIDE2,1:R3-1:R1$$$V2.0”, the crude mass result (whole synthesis) is “crude 37.2 mg”. For the same substance, under “whole synthesis, crude yield, total peptide synthesis, scale of the general procedure 500 mg resin”, the crude yield was 66%.
